Laboratory results: the supplement of paper PMC10849652
Some of the results follow.

Amino acid sequences for entries named in this document (tags omitted). A change or cut given only in a name is not applied to a line headed by its entry.
UniProt Q8TAA9: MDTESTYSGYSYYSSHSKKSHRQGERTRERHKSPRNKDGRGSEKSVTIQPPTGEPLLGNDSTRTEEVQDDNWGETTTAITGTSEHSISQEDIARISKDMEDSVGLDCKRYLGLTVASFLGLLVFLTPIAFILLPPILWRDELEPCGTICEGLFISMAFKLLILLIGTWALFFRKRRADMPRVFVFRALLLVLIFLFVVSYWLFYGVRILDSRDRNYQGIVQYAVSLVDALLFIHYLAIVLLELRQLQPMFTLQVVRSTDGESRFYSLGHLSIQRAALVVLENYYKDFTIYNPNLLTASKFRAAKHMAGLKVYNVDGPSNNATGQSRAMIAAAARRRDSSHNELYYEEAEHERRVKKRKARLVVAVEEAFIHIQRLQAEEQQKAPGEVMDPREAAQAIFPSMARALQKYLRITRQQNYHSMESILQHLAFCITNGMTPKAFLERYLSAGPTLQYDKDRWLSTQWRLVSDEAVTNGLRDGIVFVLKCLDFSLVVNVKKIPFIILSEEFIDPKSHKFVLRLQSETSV
UniProt Q15836, whole entry, looked up: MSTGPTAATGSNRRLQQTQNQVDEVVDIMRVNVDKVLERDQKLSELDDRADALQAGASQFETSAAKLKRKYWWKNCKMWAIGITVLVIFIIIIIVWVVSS
UniProt P45974: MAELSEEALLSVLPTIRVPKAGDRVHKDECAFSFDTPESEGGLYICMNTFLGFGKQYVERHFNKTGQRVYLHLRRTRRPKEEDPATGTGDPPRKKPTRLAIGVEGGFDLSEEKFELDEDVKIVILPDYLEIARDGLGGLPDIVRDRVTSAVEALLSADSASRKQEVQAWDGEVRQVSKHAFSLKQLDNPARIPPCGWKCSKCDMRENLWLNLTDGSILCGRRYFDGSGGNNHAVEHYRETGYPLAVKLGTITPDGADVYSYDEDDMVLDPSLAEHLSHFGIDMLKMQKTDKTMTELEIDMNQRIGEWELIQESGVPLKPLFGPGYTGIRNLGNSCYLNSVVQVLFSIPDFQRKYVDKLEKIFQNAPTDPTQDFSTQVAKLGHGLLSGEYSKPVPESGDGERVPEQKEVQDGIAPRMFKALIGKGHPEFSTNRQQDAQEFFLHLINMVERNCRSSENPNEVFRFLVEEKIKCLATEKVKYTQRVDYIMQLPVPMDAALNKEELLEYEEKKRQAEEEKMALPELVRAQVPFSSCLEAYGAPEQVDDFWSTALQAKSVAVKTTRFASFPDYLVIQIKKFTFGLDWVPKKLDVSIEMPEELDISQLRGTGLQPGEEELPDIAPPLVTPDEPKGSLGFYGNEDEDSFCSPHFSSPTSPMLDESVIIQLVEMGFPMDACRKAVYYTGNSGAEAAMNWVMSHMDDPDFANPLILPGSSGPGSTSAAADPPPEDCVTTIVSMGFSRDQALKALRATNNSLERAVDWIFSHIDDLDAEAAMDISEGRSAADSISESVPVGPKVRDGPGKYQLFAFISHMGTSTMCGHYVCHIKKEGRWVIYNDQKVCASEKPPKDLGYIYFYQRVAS
UniProt P51784: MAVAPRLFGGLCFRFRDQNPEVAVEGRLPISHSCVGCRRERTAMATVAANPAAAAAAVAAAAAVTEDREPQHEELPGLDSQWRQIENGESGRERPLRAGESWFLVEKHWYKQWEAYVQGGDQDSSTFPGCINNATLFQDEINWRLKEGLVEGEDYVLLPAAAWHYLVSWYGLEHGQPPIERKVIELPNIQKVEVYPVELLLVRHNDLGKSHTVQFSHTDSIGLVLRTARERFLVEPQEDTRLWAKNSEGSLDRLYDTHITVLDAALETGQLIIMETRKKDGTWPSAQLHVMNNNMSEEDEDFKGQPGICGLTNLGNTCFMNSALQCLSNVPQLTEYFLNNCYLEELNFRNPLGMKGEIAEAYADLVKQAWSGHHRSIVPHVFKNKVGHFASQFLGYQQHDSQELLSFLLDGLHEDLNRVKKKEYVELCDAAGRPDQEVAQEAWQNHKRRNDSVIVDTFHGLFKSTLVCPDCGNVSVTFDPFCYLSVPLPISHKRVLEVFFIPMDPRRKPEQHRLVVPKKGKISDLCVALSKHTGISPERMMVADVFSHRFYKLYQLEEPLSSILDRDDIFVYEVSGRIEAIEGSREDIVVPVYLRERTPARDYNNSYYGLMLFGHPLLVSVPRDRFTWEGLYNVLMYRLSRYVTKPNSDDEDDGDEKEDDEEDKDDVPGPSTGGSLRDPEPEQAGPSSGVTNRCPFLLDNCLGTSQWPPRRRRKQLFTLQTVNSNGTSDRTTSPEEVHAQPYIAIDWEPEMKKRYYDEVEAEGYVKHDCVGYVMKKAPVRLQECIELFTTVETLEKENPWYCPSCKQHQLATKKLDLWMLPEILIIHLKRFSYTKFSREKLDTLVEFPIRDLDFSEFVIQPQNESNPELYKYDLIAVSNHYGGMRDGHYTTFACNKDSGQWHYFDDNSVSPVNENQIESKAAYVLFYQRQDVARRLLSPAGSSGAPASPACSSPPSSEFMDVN
UniProt Q96RU2: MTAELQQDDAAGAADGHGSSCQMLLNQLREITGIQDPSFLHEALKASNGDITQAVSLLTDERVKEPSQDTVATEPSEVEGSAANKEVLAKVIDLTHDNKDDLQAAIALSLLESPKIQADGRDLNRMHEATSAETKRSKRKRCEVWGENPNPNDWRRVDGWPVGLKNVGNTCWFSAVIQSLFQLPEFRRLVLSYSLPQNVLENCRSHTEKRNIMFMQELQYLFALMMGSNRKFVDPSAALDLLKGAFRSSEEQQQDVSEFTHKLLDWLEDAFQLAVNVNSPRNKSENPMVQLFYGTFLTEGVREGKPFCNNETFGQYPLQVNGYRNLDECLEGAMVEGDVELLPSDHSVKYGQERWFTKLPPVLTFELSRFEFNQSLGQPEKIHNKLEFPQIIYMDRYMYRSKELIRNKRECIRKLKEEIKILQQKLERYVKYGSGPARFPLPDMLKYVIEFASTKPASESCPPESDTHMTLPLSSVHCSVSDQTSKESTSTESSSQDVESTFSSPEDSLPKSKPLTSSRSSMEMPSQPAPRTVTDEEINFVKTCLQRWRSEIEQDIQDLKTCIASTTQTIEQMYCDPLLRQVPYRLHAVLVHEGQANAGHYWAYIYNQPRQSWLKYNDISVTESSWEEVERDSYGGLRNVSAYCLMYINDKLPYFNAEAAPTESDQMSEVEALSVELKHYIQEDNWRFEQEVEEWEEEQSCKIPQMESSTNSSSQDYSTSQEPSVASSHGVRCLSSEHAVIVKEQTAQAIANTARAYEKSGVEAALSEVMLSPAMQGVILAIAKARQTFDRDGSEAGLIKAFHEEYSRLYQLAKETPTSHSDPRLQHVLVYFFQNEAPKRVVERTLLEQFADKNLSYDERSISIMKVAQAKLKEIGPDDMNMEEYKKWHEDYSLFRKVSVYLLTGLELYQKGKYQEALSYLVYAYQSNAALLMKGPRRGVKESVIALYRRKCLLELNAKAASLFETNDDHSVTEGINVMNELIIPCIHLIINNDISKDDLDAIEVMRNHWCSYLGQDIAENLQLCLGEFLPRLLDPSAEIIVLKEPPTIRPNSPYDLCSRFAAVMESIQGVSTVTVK
UniProt Q9NUQ7: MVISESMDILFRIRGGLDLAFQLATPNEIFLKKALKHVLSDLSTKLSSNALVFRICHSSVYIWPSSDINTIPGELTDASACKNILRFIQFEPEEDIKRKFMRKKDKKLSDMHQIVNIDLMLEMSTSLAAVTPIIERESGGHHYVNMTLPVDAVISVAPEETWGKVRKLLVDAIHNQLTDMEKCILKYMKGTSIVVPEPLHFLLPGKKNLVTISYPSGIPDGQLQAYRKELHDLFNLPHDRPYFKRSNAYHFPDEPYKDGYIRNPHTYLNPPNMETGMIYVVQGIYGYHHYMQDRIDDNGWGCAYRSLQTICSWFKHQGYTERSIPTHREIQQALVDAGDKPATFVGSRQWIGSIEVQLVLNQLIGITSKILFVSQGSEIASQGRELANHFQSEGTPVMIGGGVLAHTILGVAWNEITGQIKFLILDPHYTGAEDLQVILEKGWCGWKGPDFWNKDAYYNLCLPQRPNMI
UniProt Q9H1C4: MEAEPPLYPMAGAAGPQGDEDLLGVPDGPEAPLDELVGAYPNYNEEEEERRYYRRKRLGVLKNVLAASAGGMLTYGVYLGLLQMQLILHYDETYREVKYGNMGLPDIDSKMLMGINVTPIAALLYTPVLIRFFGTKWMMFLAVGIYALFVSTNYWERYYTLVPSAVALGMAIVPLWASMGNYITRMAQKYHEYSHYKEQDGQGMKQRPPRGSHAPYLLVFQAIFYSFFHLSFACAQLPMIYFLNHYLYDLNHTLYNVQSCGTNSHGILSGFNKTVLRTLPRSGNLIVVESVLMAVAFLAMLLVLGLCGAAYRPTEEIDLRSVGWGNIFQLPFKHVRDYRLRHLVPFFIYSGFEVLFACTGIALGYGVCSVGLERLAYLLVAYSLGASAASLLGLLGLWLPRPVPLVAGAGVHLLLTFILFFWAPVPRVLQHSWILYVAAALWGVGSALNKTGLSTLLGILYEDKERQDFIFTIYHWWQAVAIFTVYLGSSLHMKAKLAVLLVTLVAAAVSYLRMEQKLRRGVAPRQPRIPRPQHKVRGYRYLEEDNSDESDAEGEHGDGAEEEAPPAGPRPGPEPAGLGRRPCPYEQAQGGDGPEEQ
UniProt P31930: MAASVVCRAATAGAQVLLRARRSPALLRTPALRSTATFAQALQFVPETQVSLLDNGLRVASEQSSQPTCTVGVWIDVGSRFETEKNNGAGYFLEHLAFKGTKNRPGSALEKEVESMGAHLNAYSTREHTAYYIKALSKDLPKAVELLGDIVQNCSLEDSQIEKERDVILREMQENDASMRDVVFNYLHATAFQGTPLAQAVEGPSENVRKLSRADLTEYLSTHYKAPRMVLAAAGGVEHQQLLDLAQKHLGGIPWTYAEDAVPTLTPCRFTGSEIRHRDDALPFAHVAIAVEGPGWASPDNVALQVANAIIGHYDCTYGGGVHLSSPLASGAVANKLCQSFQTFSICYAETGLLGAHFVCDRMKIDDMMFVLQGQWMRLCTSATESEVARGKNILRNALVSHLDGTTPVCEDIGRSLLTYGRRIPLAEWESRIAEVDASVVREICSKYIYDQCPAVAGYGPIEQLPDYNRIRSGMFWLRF
UniProt Q9UBK9, whole entry, looked up: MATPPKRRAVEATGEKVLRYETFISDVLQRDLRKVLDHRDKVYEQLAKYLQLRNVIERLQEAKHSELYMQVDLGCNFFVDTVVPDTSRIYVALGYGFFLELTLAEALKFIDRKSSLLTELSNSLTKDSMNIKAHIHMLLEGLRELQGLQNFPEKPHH
UniProt Q9Y6I4: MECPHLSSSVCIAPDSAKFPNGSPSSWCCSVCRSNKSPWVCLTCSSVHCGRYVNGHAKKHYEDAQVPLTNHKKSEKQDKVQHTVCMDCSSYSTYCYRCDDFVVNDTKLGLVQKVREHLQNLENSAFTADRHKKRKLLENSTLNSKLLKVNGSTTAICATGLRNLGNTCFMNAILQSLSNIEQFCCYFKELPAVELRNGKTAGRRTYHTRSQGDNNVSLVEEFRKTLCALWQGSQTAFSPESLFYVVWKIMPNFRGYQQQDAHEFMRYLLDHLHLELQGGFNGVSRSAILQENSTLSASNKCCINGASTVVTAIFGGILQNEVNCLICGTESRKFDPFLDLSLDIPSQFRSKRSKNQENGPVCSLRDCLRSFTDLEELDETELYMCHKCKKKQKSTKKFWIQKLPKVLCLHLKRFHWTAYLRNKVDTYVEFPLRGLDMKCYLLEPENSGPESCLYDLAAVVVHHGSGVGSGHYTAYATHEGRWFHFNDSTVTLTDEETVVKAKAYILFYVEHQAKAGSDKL
UniProt P07919: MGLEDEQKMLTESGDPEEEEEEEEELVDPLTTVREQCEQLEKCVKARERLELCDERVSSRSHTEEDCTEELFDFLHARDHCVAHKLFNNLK
UniProt O14957: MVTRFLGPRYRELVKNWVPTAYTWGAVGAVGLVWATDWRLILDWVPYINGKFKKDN
UniProt Q14119: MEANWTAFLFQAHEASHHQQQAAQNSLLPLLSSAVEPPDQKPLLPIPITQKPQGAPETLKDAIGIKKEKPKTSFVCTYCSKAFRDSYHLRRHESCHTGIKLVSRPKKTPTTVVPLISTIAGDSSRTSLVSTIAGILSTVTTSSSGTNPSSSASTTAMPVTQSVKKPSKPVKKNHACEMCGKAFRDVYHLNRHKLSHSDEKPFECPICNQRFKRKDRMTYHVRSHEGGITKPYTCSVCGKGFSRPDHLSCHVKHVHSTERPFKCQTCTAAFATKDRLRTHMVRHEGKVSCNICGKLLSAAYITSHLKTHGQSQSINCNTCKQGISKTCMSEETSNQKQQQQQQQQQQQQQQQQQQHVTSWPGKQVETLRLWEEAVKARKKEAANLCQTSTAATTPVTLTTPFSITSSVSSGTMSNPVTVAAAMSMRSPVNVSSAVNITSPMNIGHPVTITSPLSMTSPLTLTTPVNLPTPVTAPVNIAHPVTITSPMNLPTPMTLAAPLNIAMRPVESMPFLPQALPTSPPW
UniProt Q9BV40: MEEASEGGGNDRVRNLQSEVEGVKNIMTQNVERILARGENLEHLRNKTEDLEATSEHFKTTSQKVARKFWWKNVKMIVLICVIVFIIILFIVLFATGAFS

What was measured:
Assay in all cases: log2 fold change, soluble protein after heating vs DMSO (PISA); higher = thermal stabilisation; K562 lysate, 10 uM; active = over 0.2 and 3.5 SD of the protein, either way, in both replicates (recomputed)
vemurafenib = compound: CCCS(=O)(=O)Nc1ccc(F)c(C(=O)c2c[nH]c3ncc(-c4ccc(Cl)cc4)cc23)c1F [vemurafenib]
Procedure, shortened: (§1)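 The values are log-two fold changes in thermal stability compared with solvent controls and come from duplicates. They were obtained by TMTpro 16plex LC-MS/MS, with channel sums equalised, on the supernatant after 21,000xg for 90 min. That supernatant came from crude K562 extract at 1 mg/mL protein treated with 10 μM compound for 30 min, heated for 3 min across 48°C-58°C, pooled and brought to 0.5% NP-40 at 4°C.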

[1] = compound: CCCS(=O)(=O)Nc1ccc(F)c(C(=O)c2c[nH]c3ncc(Cl)cc23)c1F
Procedure, shortened: as §1

barasertib = compound: CCN(CCCOc1ccc2c(Nc3cc(CC(=O)Nc4cccc(F)c4)[nH]n3)ncnc2c1)CCOP(=O)(O)O [barasertib]
Procedure, shortened: as §1

[2] = compound: CC[C@@H]1C(=O)N(C)c2cnc(Nc3ccc(C(=O)NC4CCN(C)CC4)cc3OC)nc2N1C1CCCC1
Procedure, shortened: as §1

volasertib = compound: CC[C@@H]1C(=O)N(C)c2cnc(Nc3ccc(C(=O)N[C@H]4CC[C@H](N5CCN(CC6CC6)CC5)CC4)cc3OC)nc2N1C(C)C [volasertib]
Procedure, shortened: as §1

[3] = compound: CCn1c(C(=O)N(C2CC2)C2CC2)cc2c3c(ncn3C)c(Nc3cc(C)n(C)n3)nc21
Procedure, shortened: as §1

[4] = compound: CCn1cc(-c2ccnc3[nH]c(-c4cccc(CN(C)C)c4)cc23)c(-c2ccc(NC(=O)N(C)C)cc2)n1
Procedure, shortened: as §1

[5] = compound: CN1CCC(CNc2ccc3ncc(-c4cccc(OC(F)(F)F)c4)n3n2)CC1
Procedure, shortened: as §1

saracatinib = compound: CN1CCN(CCOc2cc(OC3CCOCC3)c3c(Nc4c(Cl)ccc5c4OCO5)ncnc3c2)CC1 [saracatinib]
Procedure, shortened: as §1

sotrastaurin = compound: CN1CCN(c2nc(C3=C(c4c[nH]c5ccccc45)C(=O)NC3=O)c3ccccc3n2)CC1 [sotrastaurin]
Procedure, shortened: as §1

alvocidib = compound: CN1CC[C@H](c2c(O)cc(O)c3c(=O)cc(-c4ccccc4Cl)oc23)[C@H](O)C1 [alvocidib]
Procedure, shortened: as §1

Tubastatin A = compound: CN1CCc2c(c3ccccc3n2Cc2ccc(C(=O)NO)cc2)C1 [Tubastatin A]
Procedure, shortened: as §1

[6] = compound: CNC(=O)C1=CC=CC=C1NC2=NC(=NC=C2Cl)NC3=C(C=C(C=C3)N4CCOCC4)OC
Procedure, shortened: as §1

defactinib = compound: CNC(=O)c1ccc(Nc2ncc(C(F)(F)F)c(NCc3nccnc3N(C)S(C)(=O)=O)n2)cc1 [defactinib]
Procedure, shortened: as §1

[7] = compound: CNc1nc(-c2ccc3c(N)n[nH]c3c2)cc(N2C[C@@H](C(=O)NC3CCCCC3)CC[C@H]2C)n1
Procedure, shortened: as §1

encorafenib = compound: COC(=O)N[C@@H](C)CNc1nccc(-c2cn(C(C)C)nc2-c2cc(Cl)cc(NS(C)(=O)=O)c2F)n1 [encorafenib]
Procedure, shortened: as §1

[8] = compound: COC(=O)[C@H](CCSC)NC(=O)C1=C(C=C(C=C1)NC[C@H](CS)N)C2=CC=CC=C2
Procedure, shortened: as §1

alisertib = compound: COc1cc(Nc2ncc3c(n2)-c2ccc(Cl)cc2C(c2c(F)cccc2OC)=NC3)ccc1C(=O)O [alisertib]
Procedure, shortened: as §1

[9] = compound: COc1cc2nc(-c3cc(F)ccc3O)nc(N[C@@H]3CNC[C@H]3C(C)(C)O)c2cc1OC
Procedure, shortened: as §1

gefitinib = compound: COc1cc2ncnc(Nc3ccc(F)c(Cl)c3)c2cc1OCCCN1CCOCC1 [gefitinib]
Procedure, shortened: as §1

| Target | log2 fold change (vemurafenib) | log2 fold change [1] | log2 fold change (barasertib) | log2 fold change [2] | log2 fold change (volasertib) | log2 fold change [3] | log2 fold change [4] | log2 fold change [5] | log2 fold change (saracatinib) | log2 fold change (sotrastaurin) | log2 fold change (alvocidib) | log2 fold change (Tubastatin A) | log2 fold change [6] | log2 fold change (defactinib) | log2 fold change [7] | log2 fold change (encorafenib) | log2 fold change [8] | log2 fold change (alisertib) | log2 fold change [9] | log2 fold change (gefitinib) |
| --- | --- | --- | --- | --- | --- | --- | --- | --- | --- | --- | --- | --- | --- | --- | --- | --- | --- | --- | --- | --- |
| VANGL1 (UniProt Q8TAA9) | inactive: -0.075 | inactive: 0.023 | inactive: 0.101 | inactive: 0.004 | inactive: -0.009 | inactive: 0.105 | inactive: -0.088 | inactive: 0.058 | inactive: 0.044 | inactive: 0.125 | inactive: 0.005 | inactive: 0.088 | inactive: -0.054 | inactive: 0.078 | inactive: 0.054 | inactive: -0.011 | inactive: -0.072 | inactive: -0.023 | inactive: -0.071 | inactive: 0.011 |
| VAMP3 (UniProt Q15836) | inactive: 0.056 | inactive: -0.05 | inactive: -0.006 | inactive: 0.093 | inactive: 0.095 | inactive: -0.102 | inactive: 0.023 | inactive: 0.033 | inactive: 0.096 | inactive: -0.067 | inactive: -0.044 | inactive: 0.035 | inactive: 0.041 | inactive: -0.006 | inactive: -0.017 | inactive: 0.025 | inactive: -0.031 | inactive: -0.021 | inactive: -0.01 | inactive: -0.207 |
| VAT1 (UniProt Q99536) | inactive: 0.019 | inactive: -0.004 | inactive: -0.019 | inactive: 0.039 | inactive: 0.024 | inactive: -0.028 | inactive: -0.029 | inactive: 0.039 | inactive: -0.017 | inactive: -0.021 | inactive: 0.009 | inactive: 0.037 | inactive: 0.005 | inactive: -0.004 | inactive: 0 | inactive: -0.022 | inactive: -0.037 | inactive: -0.003 | inactive: 0.024 | inactive: -0.051 |
| USP5 isoform 2 (UniProt P45974) | inactive: -0.005 | inactive: -0.004 | inactive: -0.026 | inactive: 0.027 | inactive: 0.014 | inactive: -0.005 | inactive: -0.031 | inactive: 0.019 | inactive: 0.002 | inactive: 0.016 | inactive: 0 | inactive: 0.06 | inactive: 0 | inactive: -0.027 | inactive: -0.024 | inactive: -0.004 | inactive: 0.045 | inactive: -0.025 | inactive: -0.01 | inactive: -0.001 |
| UROS (UniProt P10746) | inactive: -0.024 | inactive: -0.002 | inactive: 0.057 | inactive: -0.056 | inactive: -0.05 | inactive: 0.05 | inactive: 0.061 | inactive: -0.021 | inactive: -0.008 | inactive: -0.023 | inactive: -0.01 | inactive: -0.008 | inactive: -0.019 | inactive: 0.022 | inactive: -0.085 | inactive: 0.014 | inactive: -0.074 | inactive: -0.071 | inactive: -0.027 | inactive: -0.094 |
| USP11 (UniProt P51784) | inactive: 0.034 | inactive: 0.022 | inactive: 0.024 | inactive: -0.103 | inactive: -0.08 | inactive: -0.004 | inactive: -0.057 | inactive: -0.04 | inactive: 0.022 | inactive: 0.02 | inactive: -0.007 | inactive: -0.129 | inactive: -0.013 | inactive: -0.008 | inactive: -0.03 | inactive: 0.023 | inactive: 0.09 | inactive: -0.019 | inactive: -0.007 | inactive: 0.034 |
| USP28 isoform 2 (UniProt Q96RU2) | inactive: -0.048 | inactive: 0.013 | inactive: -0.041 | inactive: 0.034 | inactive: -0.022 | inactive: -0.003 | inactive: -0.032 | inactive: 0.009 | inactive: 0.02 | inactive: -0.011 | inactive: -0.001 | inactive: -0.145 | inactive: -0.011 | inactive: 0.003 | inactive: -0.036 | inactive: -0.004 | inactive: -0.012 | inactive: 0.017 | inactive: -0.022 | inactive: -0.003 |
| UFSP2 (UniProt Q9NUQ7) | inactive: 0.074 | inactive: -0.018 | inactive: -0.019 | inactive: 0.072 | inactive: -0.071 | inactive: 0.016 | inactive: -0.011 | inactive: 0.002 | inactive: 0.036 | inactive: 0.018 | inactive: 0.034 | inactive: 0.024 | inactive: -0.045 | inactive: 0.022 | inactive: -0.036 | inactive: 0.031 | inactive: 0.055 | inactive: 0.019 | inactive: 0.035 | inactive: -0.031 |
| UNC93B1 (UniProt Q9H1C4) | inactive: 0.019 | inactive: 0.112 | inactive: 0.015 | inactive: 0.143 | inactive: 0 | inactive: 0.019 | inactive: -0.091 | inactive: 0.084 | inactive: -0.019 | inactive: -0.141 | inactive: 0.032 | inactive: -0.025 | inactive: -0.114 | inactive: -0.079 | inactive: -0.036 | inactive: -0.086 | inactive: 0.237 | inactive: -0.037 | inactive: -0.156 | inactive: -0.164 |
| UQCRC1 (UniProt P31930) | inactive: -0.013 | inactive: 0.004 | inactive: -0.018 | inactive: 0.04 | inactive: 0.003 | inactive: 0.009 | inactive: -0.013 | inactive: 0.028 | inactive: -0.003 | inactive: -0.036 | inactive: -0.022 | inactive: 0.061 | inactive: 0.012 | inactive: -0.01 | inactive: 0.026 | inactive: -0.014 | inactive: 0.002 | inactive: -0.007 | inactive: 0.028 | inactive: 0.004 |
| UXT isoform 2 (UniProt Q9UBK9) | inactive: -0.023 | inactive: 0 | inactive: 0.056 | active: 0.321 | inactive: -0.004 | inactive: -0.088 | inactive: -0.05 | inactive: 0.032 | inactive: 0.053 | inactive: 0.001 | inactive: -0.038 | inactive: 0.081 | inactive: 0.015 | inactive: 0.069 | active: 0.574 | inactive: -0.081 | inactive: 0.025 | inactive: -0.041 | inactive: 0.038 | inactive: 0.04 |
| USP3 (UniProt Q9Y6I4) | inactive: 0.041 | inactive: -0.007 | inactive: 0.008 | inactive: 0.023 | inactive: -0.012 | inactive: -0.011 | inactive: 0.064 | inactive: -0.041 | inactive: 0.011 | inactive: 0.011 | inactive: 0.002 | inactive: -0.154 | inactive: -0.046 | inactive: 0.013 | inactive: -0.024 | inactive: 0.03 | inactive: 0.022 | inactive: -0.008 | inactive: 0.028 | inactive: -0.005 |
| UQCRH (UniProt P07919) | inactive: 0.009 | inactive: -0.002 | inactive: 0.124 | inactive: 0.031 | inactive: 0.05 | inactive: 0.059 | inactive: -0.056 | inactive: 0.037 | inactive: -0.018 | inactive: 0.025 | inactive: -0.003 | inactive: 0.03 | inactive: -0.032 | inactive: -0.032 | inactive: 0.017 | inactive: -0.004 | inactive: -0.064 | inactive: -0.011 | inactive: -0.001 | inactive: 0.001 |
| UQCR11 (UniProt O14957) | inactive: -0.024 | inactive: 0.004 | inactive: 0.158 | inactive: -0.121 | inactive: 0.073 | inactive: -0.023 | inactive: 0.278 | inactive: -0.056 | inactive: -0.013 | inactive: 0.06 | inactive: 0.006 | inactive: -0.029 | inactive: 0.006 | inactive: 0.177 | inactive: 0.116 | inactive: 0.044 | inactive: 0.076 | inactive: 0.011 | inactive: -0.041 | inactive: -0.172 |
| VEZF1 (UniProt Q14119) | inactive: 0.07 | inactive: -0.118 | inactive: -0.05 | inactive: 0.112 | inactive: 0.003 | inactive: 0.025 | inactive: -0.176 | inactive: 0.039 | inactive: 0.005 | inactive: 0.025 | inactive: -0.056 | inactive: -0.073 | inactive: 0.091 | inactive: -0.057 | inactive: -0.062 | inactive: -0.045 | inactive: -0.02 | inactive: 0.048 | inactive: 0.002 | inactive: 0.06 |
| VAMP8 (UniProt Q9BV40) | inactive: -0.003 | inactive: -0.008 | inactive: 0.064 | inactive: 0.035 | inactive: 0.047 | inactive: -0.013 | inactive: 0.014 | inactive: 0 | inactive: -0.01 | inactive: 0.019 | inactive: -0.032 | inactive: 0.06 | inactive: -0.006 | inactive: 0.012 | inactive: -0.02 | inactive: 0.023 | inactive: -0.039 | inactive: -0.016 | inactive: 0.005 | inactive: -0.006 |

Random excerpt: two records from the list

| Target | log2 fold change (vemurafenib) | log2 fold change [1] | log2 fold change (barasertib) | log2 fold change [2] | log2 fold change (volasertib) | log2 fold change [3] | log2 fold change [4] | log2 fold change [5] | log2 fold change (saracatinib) | log2 fold change (sotrastaurin) | log2 fold change (alvocidib) | log2 fold change (Tubastatin A) | log2 fold change [6] | log2 fold change (defactinib) | log2 fold change [7] | log2 fold change (encorafenib) | log2 fold change [8] | log2 fold change (alisertib) | log2 fold change [9] | log2 fold change (gefitinib) |
| --- | --- | --- | --- | --- | --- | --- | --- | --- | --- | --- | --- | --- | --- | --- | --- | --- | --- | --- | --- | --- |
| VAT1 (UniProt Q99536) | inactive: 0.019 | inactive: -0.004 | inactive: -0.019 | inactive: 0.039 | inactive: 0.024 | inactive: -0.028 | inactive: -0.029 | inactive: 0.039 | inactive: -0.017 | inactive: -0.021 | inactive: 0.009 | inactive: 0.037 | inactive: 0.005 | inactive: -0.004 | inactive: 0 | inactive: -0.022 | inactive: -0.037 | inactive: -0.003 | inactive: 0.024 | inactive: -0.051 |
| USP5 isoform 2 (UniProt P45974) | inactive: -0.005 | inactive: -0.004 | inactive: -0.026 | inactive: 0.027 | inactive: 0.014 | inactive: -0.005 | inactive: -0.031 | inactive: 0.019 | inactive: 0.002 | inactive: 0.016 | inactive: 0 | inactive: 0.06 | inactive: 0 | inactive: -0.027 | inactive: -0.024 | inactive: -0.004 | inactive: 0.045 | inactive: -0.025 | inactive: -0.01 | inactive: -0.001 |
